Measured data: PubChem BioAssay AID1224830 (NIAID, 2016)
In all, the deposit lists about 18,000 reagents; this is a random part of them. About 2,900 of them (16%) were called active. 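Calls are made per well; low scores hint the gene aids the LPS response, high scores that it dampens it.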 Unmarked entries are inactive. Repeated entries: four replicate wells of each siRNA pool. Reagent sequences are not shown.

Test: 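Genes whose knock-down alters the TNF-alpha reporter response to LPS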 (primary screen)
Cell system: human THP-1 monocytic leukaemia cells, TNF dual-luciferase reporter clone, PMA-differentiated to macrophage-like cells
Reagent: siRNA pool against human genes, 50 nM
Timing: LPS for 4 h, given about 3 days after siRNA transfection
Challenge: bacterial LPS (TLR4 ligand), 10 ng/ml
Read-out: 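Ratio of firefly to renilla light, scaled to the plate median and expressed as a robust z-score per replicate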
Reading the numbers: TNF reporter robust z-score: higher = stronger TNF reporter response to LPS
Rule for the call: 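Each well counts as active if its z-score is over 2.8 or under -1.5; controls are left without a call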

PRM2 (protamine 2) scored TNF reporter robust z-score 0.25.
PRM2 (protamine 2) showed TNF reporter robust z-score 0.11.
PRM2 (protamine 2) gave TNF reporter robust z-score -1.03.
PRM2 (protamine 2) scored TNF reporter robust z-score -0.24.
For SLC38A5 the deposit lists TNF reporter robust z-score 0.11.
For SLC38A5, the values are TNF reporter robust z-score -0.23.
SLC38A5 showed TNF reporter robust z-score -0.36.
Against SLC38A5, the entry reads TNF reporter robust z-score 0.22.
For TPRG1 (tumor protein p63 regulated 1), the values are TNF reporter robust z-score -0.83.
Against TPRG1 (tumor protein p63 regulated 1), the entry reads TNF reporter robust z-score -0.59.
For TPRG1 (tumor protein p63 regulated 1), the values are TNF reporter robust z-score -0.66.
Knock-down of TPRG1 (tumor protein p63 regulated 1) came out at: TNF reporter robust z-score -0.65.
P2RX4 (purinergic receptor P2X 4) showed TNF reporter robust z-score -0.35.
With knock-down of P2RX4 (purinergic receptor P2X 4), the screen gave TNF reporter robust z-score -0.71.
Knock-down of P2RX4 (purinergic receptor P2X 4) came out at: TNF reporter robust z-score -0.09.
With knock-down of P2RX4 (purinergic receptor P2X 4), the record shows TNF reporter robust z-score 1.11.
After knock-down of SDC4 (syndecan 4), the screen gave TNF reporter robust z-score -0.32.
After knock-down of SDC4 (syndecan 4), the record shows TNF reporter robust z-score 0.24.
For SDC4 (syndecan 4), the values are TNF reporter robust z-score 0.05.
After knock-down of SDC4 (syndecan 4) the results were TNF reporter robust z-score 0.4.

Targets above whose gene name starts with T or t:
TPRG1 (tumor protein p63 regulated 1) | TNF reporter robust z-score = -0.83
TPRG1 (tumor protein p63 regulated 1) | TNF reporter robust z-score = -0.59
TPRG1 (tumor protein p63 regulated 1) | TNF reporter robust z-score = -0.66
TPRG1 (tumor protein p63 regulated 1) | TNF reporter robust z-score = -0.65

The list goes on.
For PDCL3 (phosducin like 3), the values are TNF reporter robust z-score 0.02.
PDCL3 (phosducin like 3) scored TNF reporter robust z-score 0.36.
Depletion of PDCL3 (phosducin like 3) resulted in: TNF reporter robust z-score 1.55.
Depletion of PDCL3 (phosducin like 3) gave: TNF reporter robust z-score 1.61.
Against FHIP2B (FHF complex subunit HOOK interacting protein 2B), the values are TNF reporter robust z-score -0.1.
After knock-down of FHIP2B (FHF complex subunit HOOK interacting protein 2B), the screen gave TNF reporter robust z-score -0.68.
After knock-down of FHIP2B (FHF complex subunit HOOK interacting protein 2B), the screen gave TNF reporter robust z-score -0.03.
Against FHIP2B (FHF complex subunit HOOK interacting protein 2B), the values are TNF reporter robust z-score 1.02.
After knock-down of DUSP28 (dual specificity phosphatase 28), the screen gave TNF reporter robust z-score 1.1.
For DUSP28 (dual specificity phosphatase 28), the values are TNF reporter robust z-score 1.09.
After knock-down of DUSP28 (dual specificity phosphatase 28) the results were TNF reporter robust z-score -0.29.
Against DUSP28 (dual specificity phosphatase 28), the entry reads TNF reporter robust z-score 1.37.
